# Results reported in patent publication US11420962B2, “Indene derivatives useful in treating pain and inflammation” (TARO PHARMACEUTICALS INC., priority 2018, dated 2022).
# For at least one compound, name, drawing or mass did not settle the structure.
# Test system: Mice (male, C57Bl/6)
# Test: Pulmonary LPS challenge assay in mice
# Format: in vivo
# Conditions: 3.0 mg/kg, IP once 1 h prior to LPS; compared with 44% of Compound Ia-1
# Protocol: Mice (male, C57Bl/6) were acclimatized for a period of about 7 days before initiation of the experiment and randomized on the day prior to treatment. Mice received vehicle or representative test compounds of the invention (i.e., test compounds) once daily for three days by oral gavage on Day −2, Day −1 and on Day 0 (the last dose being 1 h prior to LPS administration). One group of mice received the reference standard, dexamethasone, once, IP on Day 0 at 1 h prior to LPS administration. Pulmonary inflammation was induced in all animals except the sham control animals by intratracheal instillation of 20 μg LPS per animal in 50 μl saline. Sham control animals received 50 μl saline alone.
# Twenty-four hours post LPS administration, animals were euthanized and the trachea was cannulated. Cold Hanks Balanced Salt Solution (HBSS) (SIGMA; Catalogue number: H1387), pH 7.2, was infused into the lungs and bronchoalveolar lavage fluid (BALF) was collected.
# Total leukocyte counts were performed from the collected BALF using a mini flow-cytometer and differential counts were performed in cytospin smears stained with Leishman's staining manually. ELISA kits were used for quantification of cytokines in the BALF (TNFα, IL-1β, IL-6 and KC). Reagents, samples and standards were prepared as per kit manual. Total protein analysis in BALF samples were performed using the Biorad protein assay reagent. […]
smiles,measurement,value
"C[C@@H]1C[C@H]2[C@@H]3CCC4=CC(=O)C=C[C@]4(C)[C@@]3(F)[C@@H](O)C[C@]2(C)[C@@]1(O)C(=O)CO [dexamethasone, reference compound]",% protection from neutrophilia,same % protection
